# The whole screen tested about 320,000 compounds, of which about 740 (0.23%) were called active. The inconclusive results got no clear call from the source; some entries with a clear call stand among them for comparison. Calls come from the whole dose curve; as a rule, active = well fitted activation curve with a large enough effect; inconclusive = small, poorly fitted or top-dose-only effect; inactive = no such curve, though single readings can be large or run the other way. Potencies beside an inconclusive call are fits to weak or partial responses and may not hold up.
# Test: qHTS Assay for Small Molecule Inhibitors of Mitochondrial Division or Activators of Mitochondrial Fusion; note: nearly all actives have a fitted effect of over 45% in size;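 for growth rescue (activation): temperature-sensitive fusion mutants such as fzo1-1 at 37 °C on non-fermentable ethanol glycerol medium; % of control where 0% means no effect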
# Conditions: S. cerevisiae fusion-defective mutant growth rescue, CellTiterGlo 48 h; growth rescue (activation): at 46.1 µM (top of the series) unless noted
# Procedure, shortened: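 Compounds are tested for their ability to restore growth of mitochondrial fusion-defective yeast strains at non-permissive 37C in YPEG medium over 48 hours. Viability is quantified by luciferase luminescence.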
# Potency is the fitted concentration of half-maximal effect.
Structure (SMILES),Potency,growth rescue (activation)
CC(C)c1ccc(NC2CCCN(C(=O)CN3CCCC3=O)C2)cc1 (stereo not drawn),"inconclusive: 1 µM [activator, partial curve]",–
CCCn1c(SC(C)C(=O)NCC2CCCO2)nc2sc3c(c2c1=O)CCC3 (stereo not drawn),–,inactive: 12.8%
Cc1cc(C)c(S(=O)(=O)N2CCN(c3ccccn3)CC2)c(C)c1,"inconclusive: 35.5 µM [activator, single point]",–
Cc1cccc(Nc2nc(N)nc(CCl)n2)c1,–,inactive: -2.35%
O=C(Nc1cccc(F)c1)c1cccnc1NCCc1ccccc1,"inconclusive: 17.8 µM [activator, single point]",–
COc1cc(Br)c(CN2C(=O)NC3(CCCCCC3)C2=O)cc1OC,"inconclusive: 0.562 µM [activator, full curve, poor fit]",–
CCOC(=O)c1c(C)[nH]c(C(=O)CN(C)CC(=O)Nc2ccccc2Cl)c1C,"inconclusive: 20 µM [activator, single point]",–
Cc1ccc2nc(N3C(=O)C(O)=C(C(=O)c4ccc(C)o4)C3c3cccc(O)c3)sc2c1 (stereo not drawn),–,inactive: 2.43%
COC(=O)c1ccc(N/C=C\C(=O)c2ccc3c(c2)OCO3)cc1,"inconclusive: 0.355 µM [activator, full curve, poor fit]",–
COc1ccc2c(c1)CCC1C2CC[C@@]2(C)C1CC[C@@H]2NCCCCCCN1C(=O)CCC1=O (stereo partly drawn),"inconclusive: 23.1 µM [activator, single point]",–
O=C1NC2=C(C(=O)CCC2)C(c2ccc(OC(F)F)cc2)N1 (stereo not drawn),–,inactive: 13%
CCCCN(C(=S)SC)C1CCS(=O)(=O)C1 (stereo not drawn),"inconclusive: 35.5 µM [activator, single point]",–
O=C(C(Cl)Cl)N1c2ccccc2OCC1c1ccccc1 (stereo not drawn),"inconclusive: 35.5 µM [activator, single point]",–
Cn1nc(C(=O)Nc2cc(Cl)ccc2N2CCCC2)c2ccccc2c1=O,"inconclusive: 12.6 µM [activator, single point]",–
Clc1nc2c(-c3ccccc3)nnn2c2ccccc12,–,inactive: -10.9%
CCCc1nn(C)c(C(=O)Nc2ccc(Cl)cc2)c1Cl,–,inactive: 9.69%
Cc1cccc(NC(=S)N2CCN(c3ccccc3)CC2)c1,–,inactive: -9.22%
CCOC(=O)C1=C(C)NC(=O)NC1c1ccc2c(c1)OCO2 (stereo not drawn),"inconclusive: 11.2 µM [activator, partial curve]",–
COCCNC(=S)N(CCc1c(C)[nH]c2ccc(F)cc12)Cc1cccnc1,"inconclusive: 6.31 µM [activator, partial curve]",–
O=C(NCC(c1ccco1)N1CCc2ccccc21)C(=O)Nc1ccc(F)cc1F (stereo not drawn),"inconclusive: 15.8 µM [activator, single point]",–
COC(=O)C1=C(C)NC(C)=C([N+](=O)[O-])C1c1ccccc1C(F)(F)F (stereo not drawn),active: 13 µM,–
COc1cc(C(=O)OCCCN2CCCN(CCCOC(=O)c3cc(OC)c(OC)c(OC)c3)CC2)cc(OC)c1OC,"inconclusive: 29.1 µM [activator, single point]",–
O=C(Nc1ccc(Nc2ccccc2)cc1)C(Cl)(Cl)Cl,"inconclusive: 35.5 µM [activator, single point]",–

Structure (SMILES),Potency,growth rescue (activation)
CCN1C(=O)[C@H]2[C@@H](c3ccc(-c4cccc(Cl)c4)cc3)N[C@@](C)(C(=O)OC)[C@H]2C1=O,active: 22.4 µM,–
C=CCN(CC=C)C(=S)Nc1ccc2nsnc2c1,–,inactive: 3.81%
Nc1ccc2nc(SCC(=O)Nc3ccc(N4CCOCC4)c(Cl)c3)sc2c1,"inconclusive: 12.6 µM [activator, partial curve]",–
N#Cc1cc(C#N)c(N2CCN(c3cccc(Cl)n3)CC2)nc1N,"inconclusive: 10 µM [activator, partial curve]",–
COc1ccccc1N1CCN(C(=O)c2ccccc2Oc2ccccc2)CC1,"inconclusive: 3.16 µM [activator, full curve]",–
CCC(=O)Nc1ccc(-c2ccc(N3CCCCC3)nn2)cc1,active: 17.8 µM,–
COc1ccc(-c2cc(C(F)(F)F)n3nc(C(=O)NCCCn4ccnc4)cc3n2)cc1,–,inactive: 0.202%
COC(=O)c1cc2c(ccn2-c2ccc(F)cc2)n1Cc1ccc(OC(C)=O)cc1,"inconclusive: 8.91 µM [activator, partial curve]",–
Cc1ccc(-n2cc(-c3ccccc3)c3c(NN4CCOCC4)ncnc32)cc1,"inconclusive: 35.5 µM [activator, single point]",–
c1ccc(CNc2ncnc3sccc23)cc1,"inconclusive: 31.6 µM [activator, partial curve]",–
Cc1ccc(NC(=S)Nc2cccc3ccccc23)cc1,–,inactive: -11.5%
CCOc1ccccc1N1CCN(C(=O)c2cc3cc(OC)ccc3[nH]2)CC1,"inconclusive: 15.8 µM [activator, single point]",–
CCCC(=O)Nc1ccccc1Sc1ncnc2scc(-c3ccccc3)c12,"inconclusive: 14.1 µM [activator, partial curve]",–
c1ccc(-c2csc3ncnc(N4CCc5ccccc5C4)c23)cc1,"inconclusive: 31.6 µM [activator, single point]",–
O=C(OCc1ccccc1)c1cnc(Cl)c(Cl)c1,–,inactive: -13%
CN(C(=O)c1ccc(S(=O)(=O)N(C)C)cc1)c1ccc2ccccc2c1,"inconclusive: 10 µM [activator, partial curve]",–
CCN1C(=O)[C@H]2[C@@H](c3ccc(-c4ccccc4)cc3)N[C@@](Cc3ccccc3)(C(=O)OC)[C@H]2C1=O,"inconclusive: 17.8 µM [activator, single point]",–
O=C(OC(c1ccccc1)c1nccc2ccccc12)c1cccc([N+](=O)[O-])c1 (stereo not drawn),"inconclusive: 14.1 µM [activator, single point]",–
COc1cc(/C=C/C(=O)OCC(=O)Nc2cccc(Oc3ccccc3)c2)ccc1O,"inconclusive: 35.5 µM [activator, single point]",–
Cc1cccn2c(=O)c(C=C(C#N)C#N)c(N3CCN(c4ccccc4)CC3)nc12,"inconclusive: 35.5 µM [activator, partial curve]",–
Cc1ccc(S(=O)(=O)N2CCCOC2CNC(=O)C(=O)NCCC2=CCCCC2)cc1 (stereo not drawn),"inconclusive: 15.8 µM [activator, single point]",–
COc1cc2c(C#N)c(N3CCN(c4ccccc4OC)CC3)nc(N)c2c(N)n1,"inconclusive: 20 µM [activator, single point]",–
CCCOC(=O)c1cc(NC(=O)/C=C/c2ccccc2)ccc1O,"inconclusive: 14.1 µM [activator, partial curve]",–

# Quoted at random: four compounds from above.
Structure (SMILES),Potency,growth rescue (activation)
Cc1ccc2nc(N3C(=O)C(O)=C(C(=O)c4ccc(C)o4)C3c3cccc(O)c3)sc2c1 (stereo not drawn),–,inactive: 2.43%
CC(C)c1ccc(NC2CCCN(C(=O)CN3CCCC3=O)C2)cc1 (stereo not drawn),"inconclusive: 1 µM [activator, partial curve]",–
COc1cc(Br)c(CN2C(=O)NC3(CCCCCC3)C2=O)cc1OC,"inconclusive: 0.562 µM [activator, full curve, poor fit]",–
Nc1ccc2nc(SCC(=O)Nc3ccc(N4CCOCC4)c(Cl)c3)sc2c1,"inconclusive: 12.6 µM [activator, partial curve]",–

# The listing continues.

Structure (SMILES),Potency,growth rescue (activation)
Cc1cc(C)n(C(=O)/C(C#N)=N\Nc2ccccc2[N+](=O)[O-])n1,"inconclusive: 35.5 µM [activator, single point]",–
O=C(O/N=C1/CCCc2occc21)c1ccc(Cl)cc1Cl,"inconclusive: 3.55 µM [activator, single point]",–
Cc1ccc(NS(=O)(=O)c2ccc(C)c(NC(=O)COc3ccccc3)c2)c(C)c1,"inconclusive: 22.4 µM [activator, single point]",–
COc1ccc2c(=O)c3c(=O)n(Cc4ccco4)c(-c4ccc(C)cc4)nc3oc2c1,"inconclusive: 15.8 µM [activator, partial curve]",–
COc1ccccc1N1CCN(C(=O)c2cc3c(s2)CCCCC3)CC1,–,inactive: 10.1%
Cc1ccc(-c2cc(C(=O)N/N=C/C=C/c3ccccc3)n[nH]2)s1,active: 15.8 µM,–
COc1cc2c(c(OC)c1OC)-c1ccc(NC(=O)c3ccccc3)c(=O)cc1[C@@H](NC(C)=O)CC2,–,inactive: -15.9%
Cc1ccc(C)c(N2C(=N)S/C(=C\c3ccc(-c4ccccc4C(=O)O)o3)C2=O)c1,"inconclusive: 5.62 µM [activator, single point]",–
CCCOC(=O)Oc1ccc2c(=O)c(Oc3cc(C)cc(C)c3)coc2c1,"inconclusive: 25.1 µM [activator, single point]",–
C[N+]1(C)CCC(OC(=O)C(c2ccccc2)c2ccccc2)CC1,"inconclusive: 3.26 µM [activator, partial curve, poor fit]",–
O=C(Nc1ccccc1)C1=C(O)CC(c2ccc(Cl)cc2)N2CCN=C12 (stereo not drawn),"inconclusive: 25.1 µM [activator, single point]",–
O=C(CNc1cccc(C(F)(F)F)c1)Nc1cccc(S(=O)(=O)N2CCCC2)c1,–,inactive: -1.93%
CC(=O)N1CCN(c2nnc(-c3ccc(C)cc3)c3ccccc23)CC1,"inconclusive: 7.94 µM [activator, partial curve]",–
CC(=O)C1=C(C)NC(SCC(=O)c2ccc(Cl)cc2)=C(C#N)C1c1ccco1 (stereo not drawn),"inconclusive: 12.6 µM [activator, partial curve]",–
C/C(=N\Nc1ccc(C(=O)O)cc1)c1ccc(Br)cc1,–,inactive: 3.62%
C/C(N)=C(/C#N)C(=O)COC(=O)CCSc1ccccc1Cl,–,inactive: 4.74%
C/C(N)=C(/C#N)C(=O)COC(=O)C(c1ccccc1)c1ccccc1,"inconclusive: 12.6 µM [activator, partial curve]",–
O=C1C=C(c2ccc3ccccc3c2)C[C@@H](c2ccc(F)cc2)C1,"inconclusive: 14.1 µM [activator, single point]",–
COc1ccc(-n2cc(-c3ccccc3)c3c(NCCOCCO)ncnc32)cc1,"inconclusive: 35.5 µM [activator, partial curve]",–
C=CCOc1c(Br)cc(CNn2cn[nH]c2=S)cc1OC,–,inactive: -1.05%
COc1ccc(NC(=O)C(=O)NCC(c2ccco2)N2CCc3ccccc3C2)cc1 (stereo not drawn),"inconclusive: 28.2 µM [activator, single point]",–
Cn1cc(CC(=O)NCc2ccc(F)cc2)c2ccccc21,"inconclusive: 10 µM [activator, partial curve]",–

# Source: PubChem BioAssay AID485298 (National Center for Advancing Translational Sciences (NCATS), 2010)
